The source of these data is the supplement of paper PMC12593923.

Holding throughout (test): drug sensitivity score (DSS2, cytotoxicity, CellTox Green); higher = more cytotoxic / more sensitive; extreme values may be limits of the assay
Conditions in all cases: 72 h; doses 0.5, 1, 5 µM

Experiment [1] deals with Kuramochi.
Experiment [2] deals with OVCAR3.
Experiment [3] has as its system OVCAR4.

Where a name gives a salt, the structure may show the parent alone. Several reference drugs read as weak here; read low effects with care.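 All three lines are high-grade serous ovarian cancer cells differing in chemosensitivity, with OVCAR3 described as the chemosensitive one. Toxicity was scaled between DMSO vehicle wells and fully lysed wells, the score derives from a fitted multi-dose response curve, and the authors counted a score above 5 as drug sensitivity.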

`CC(C)(C)c1ccc(C(=O)NC(=S)Nc2ccc(N)cc2)cc1` [Tenovin-3]: the drug sensitivity score in experiment [1], in experiment [2] and in experiment [3] was 0 DSS throughout.

Consider `CS(=O)(=O)CCNCc1ccc(-c2ccc3ncnc(Nc4ccc(OCc5cccc(F)c5)c(Cl)c4)c3c2)o1` [Lapatinib], for which the drug sensitivity score in experiment [1], in experiment [2] and in experiment [3] was 0 DSS each time.

As to `CCCCCCCC/C=C/CCCCCCCC(=O)OC[C@H]1O[C@@H](n2ccc(N)nc2=O)C(F)(F)[C@@H]1O` [Gemcitabine (elaidate)], the drug sensitivity score in experiment [1], in experiment [2] and in experiment [3] was 0 DSS in each case.

Take `NC(=O)c1cnccn1` [Pyrazinamide]: the drug sensitivity score in experiment [1], in experiment [2] and in experiment [3] was 0 DSS throughout.

Turning to `CC(C)(C)C[C@@H]1N[C@@H](C(=O)N[C@H]2CC[C@H](O)CC2)[C@H](c2cccc(Cl)c2F)[C@]12C(=O)Nc1cc(Cl)ccc12`, the drug sensitivity score in experiment [1], in experiment [2] and in experiment [3] was 0 DSS throughout.

As to `O=C(O)c1cc(=O)c2c(OCC(O)COc3cccc4oc(C(=O)O)cc(=O)c34)cccc2o1` [Cromolyn (sodium)], the drug sensitivity score in experiment [1], in experiment [2] and in experiment [3] was 0 DSS in each case.

`COc1cc2nc(N3CCN(C(=O)C4COc5ccccc5O4)CC3)nc(N)c2cc1OC` (centres undefined) [Doxazosin (mesylate)]: the drug sensitivity score in experiment [1], in experiment [2] and in experiment [3] was 0 DSS each time.

With `CN(C)C(=O)c1cc2cnc(Nc3ccc(N4CCNCC4)cn3)nc2n1C1CCCC1` [Ribociclib succinate hydrate], the drug sensitivity score in experiment [1], in experiment [2] and in experiment [3] was 0 DSS in each case.

`Nc1ccn([C@@H]2O[C@H](CO)[C@@H](O)C2(F)F)c(=O)n1` [Gemcitabine]: the drug sensitivity score in experiment [1], in experiment [2] and in experiment [3] was 0 DSS throughout.

As for `CC(O)(CS(=O)(=O)c1ccc(F)cc1)C(=O)Nc1ccc(C#N)c(C(F)(F)F)c1` (centres undefined) [Bicalutamide], the drug sensitivity score in experiment [1], in experiment [2] and in experiment [3] was 0 DSS in each case.

Regarding `C[C@H]1[C@H](OC(=O)CCC(=O)O)O[C@@H]2O[C@@]3(C)CC[C@H]4[C@H](C)CC[C@@H]1[C@@]24OO3` [Artesunate], the drug sensitivity score worked out at 0 DSS in experiment [1], 0 DSS in experiment [2] and 1.8 DSS in experiment [3].

For `CN(C)CCCCC(=O)Nc1ccc(NC(=S)NC(=O)c2ccc(C(C)(C)C)cc2)cc1` [Tenovin-6 (Hydrochloride)], the drug sensitivity score in experiment [1], in experiment [2] and in experiment [3] was 0 DSS in each case.

Take `CN(C)C(=O)c1cc2cnc(Nc3ccc(N4CCNCC4)cn3)nc2n1C1CCCC1` [Ribociclib succinate]: the drug sensitivity score in experiment [1], in experiment [2] and in experiment [3] was 0 DSS each time.

As for `COc1ccc(C(C)=O)c(O)c1` [Paeonol], the drug sensitivity score in experiment [1] amounted to 0 DSS; in experiment [2], 0.3 DSS; in experiment [3], 0 DSS.

On to `NC(=O)N1c2ccccc2CC(=O)c2ccccc21` [Oxcarbazepine], for which the drug sensitivity score in experiment [1], in experiment [2] and in experiment [3] was 0 DSS in each case.

Regarding `NCCC(O)(P(=O)(O)O)P(=O)(O)O` [Pamidronic acid], the drug sensitivity score in experiment [1], in experiment [2] and in experiment [3] was 0 DSS in each case.

As to `O=C1CN(/N=C/c2ccc(-c3ccc([N+](=O)[O-])cc3)o2)C(=O)N1` [Dantrolene (sodium hemiheptahydrate)], the drug sensitivity score in experiment [1], in experiment [2] and in experiment [3] was 0 DSS each time.

With `O=C1CCC(N2Cc3c(CCCCCNC(=O)c4ccc(NC(=O)[C@@H]5NC6(CCCCC6)[C@@]6(C(=O)Nc7cc(Cl)ccc76)[C@H]5c5cccc(Cl)c5F)cc4)cccc3C2=O)C(=O)N1` (some centres undefined) [MD-222], the drug sensitivity score in experiment [1], in experiment [2] and in experiment [3] was 0 DSS in each case.

On to `FC(F)(F)c1ccc(CNc2ccc(Cc3c[nH]c4ncc(Cl)cc34)cn2)cn1` [Pexidartinib], for which the drug sensitivity score in experiment [1], in experiment [2] and in experiment [3] was 0 DSS each time.

As to `COc1cc(NS(C)(=O)=O)ccc1Nc1c2ccccc2nc2ccccc12` [Amsacrine (hydrochloride)], the drug sensitivity score in experiment [1], in experiment [2] and in experiment [3] was 0 DSS throughout.

For the molecule `COCCCOc1ccnc(C[S+]([O-])c2nc3ccccc3[nH]2)c1C` (centres undefined) [Rabeprazole (sodium)], the drug sensitivity score in experiment [1], in experiment [2] and in experiment [3] was 0 DSS throughout.

Turning to `CNS(=O)(=O)C[C@H]1CC[C@H](N(C)c2[nH]cnc3nccc2-3)CC1` [Oclacitinib (maleate)], the drug sensitivity score in experiment [1], in experiment [2] and in experiment [3] was 0 DSS throughout.

Consider `Cc1ccc(Nc2nccc(N(C)c3ccc4c(C)n(C)nc4c3)n2)cc1S(N)(=O)=O` [Pazopanib (Hydrochloride)], for which the drug sensitivity score in experiment [1], in experiment [2] and in experiment [3] was 0 DSS in each case.

For `CCOC(=O)c1ccc(C#Cc2ccc3c(c2)C(C)(C)CCS3)nc1` [Tazarotene], the drug sensitivity score in experiment [1], in experiment [2] and in experiment [3] was 0 DSS throughout.

For `O=C1CCC[C@@H]2[C@H]3CCC[N+]4([O-])CCC[C@@H](CN12)[C@@H]34` (some centres undefined) [Oxymatrine], the drug sensitivity score in experiment [1], in experiment [2] and in experiment [3] was 0 DSS in each case.

With `CC[C@H](C)[C@H](NC(=O)[C@H](Cc1ccc(O)cc1)NC(=O)[C@@H](NC(=O)[C@H](CCCNC(=N)N)NC(=O)[C@@H](N)CC(=O)O)C(C)C)C(=O)N[C@@H](Cc1cnc[nH]1)C(=O)N1CCC[C@H]1C(=O)N[C@@H](Cc1ccccc1)C(=O)O` [Angiotensin II human (acetate)], the drug sensitivity score in experiment [1], in experiment [2] and in experiment [3] was 0 DSS each time.

Consider `Nc1nc(F)nc2c1ncn2[C@@H]1O[C@H](COP(=O)(O)O)[C@@H](O)[C@@H]1O` [Fludarabine (phosphate)], for which the drug sensitivity score in experiment [1], in experiment [2] and in experiment [3] was 0 DSS throughout.

Turning to `CC1(C)CCC(CN2CCN(c3ccc(C(=O)NS(=O)(=O)c4ccc(NCC5CCOCC5)c([N+](=O)[O-])c4)c(Oc4cnc5[nH]ccc5c4)c3)CC2)=C(c2ccc(Cl)cc2)C1` [Venetoclax], the drug sensitivity score in experiment [1], in experiment [2] and in experiment [3] was 0 DSS throughout.

For the molecule `C[C@]12C=CC(=O)N[C@@H]1CC[C@@H]1[C@@H]2CC[C@]2(C)[C@@H](C(=O)Nc3cc(C(F)(F)F)ccc3C(F)(F)F)CC[C@@H]12` [Dutasteride], the drug sensitivity score in experiment [1], in experiment [2] and in experiment [3] was 0 DSS in each case.

Regarding `C=CC1=C(C)c2cc3[n-]c(cc4[n-]c(cc5nc(cc1n2)C(C)=C5C=C)c(C)c4CCC(=O)O)c(CCC(=O)O)c3C.[Cl-].[Fe+3]` [Hemin], the drug sensitivity score in experiment [1], in experiment [2] and in experiment [3] was 0 DSS each time.

Turning to `C[C@@H]1C[C@H]2[C@@H]3CCC4=CC(=O)C=C[C@]4(C)[C@@]3(F)[C@@H](O)C[C@]2(C)[C@@]1(O)C(=O)CO` [Dexamethasone], the drug sensitivity score in experiment [1], in experiment [2] and in experiment [3] was 0 DSS in each case.

Regarding `CC(C)(CO)c1cc2cc(NC(=O)C3(c4ccc5c(c4)OC(F)(F)O5)CC3)c(F)cc2n1C[C@@H](O)CO` [Tezacaftor], the drug sensitivity score in experiment [1], in experiment [2] and in experiment [3] was 0 DSS throughout.

For `CCCc1nn(C)c2c(=O)[nH]c(-c3cc(S(=O)(=O)N4CCN(C)CC4)ccc3OCC)nc12` [Sildenafil (citrate)], the drug sensitivity score in experiment [1] turned out to be 0 DSS; in experiment [2], 0 DSS; in experiment [3], 0.3 DSS.

`COc1cc([C@@H]2c3cc4c(cc3[C@@H](O[C@@H]3O[C@@H]5CO[C@@H](C)O[C@H]5[C@H](O)[C@H]3O)[C@H]3COC(=O)[C@H]23)OCO4)cc(OC)c1O` [Etoposide]: the drug sensitivity score in experiment [1], in experiment [2] and in experiment [3] was 0 DSS each time.

Consider `Cc1nc(C)c(C)nc1C` [Ligustrazine], for which the drug sensitivity score in experiment [1], in experiment [2] and in experiment [3] was 0 DSS in each case.

As for `O=C(O)Cc1ccccc1Nc1c(Cl)cccc1Cl` [Diclofenac], the drug sensitivity score in experiment [1], in experiment [2] and in experiment [3] was 0 DSS each time.

Regarding `Cc1ccc(NS(=O)(=O)c2ccc3c(c2)C2C=CCC2C(c2ccc(C(=O)O)cc2)N3)cc1C` (centres undefined) [MX69], the drug sensitivity score in experiment [1], in experiment [2] and in experiment [3] was 0 DSS in each case.

For `Nc1nc2[nH]cc(CCc3ccc(C(=O)N[C@@H](CCC(=O)O)C(=O)O)cc3)c2c(=O)[nH]1` [Pemetrexed (disodium)], the drug sensitivity score came out at 0 DSS in experiment [1], 0.6 DSS in experiment [2] and 0.4 DSS in experiment [3].
